Some of these results come from one statement about several compounds together. For at least one compound, name, drawing or mass did not settle the structure.
Key:
Sox9 = test: Real-time quantitative PCR of Sox9 transcripts in primary limb mesenchymal cells; assay type: cell-based, mouse; settings: 10 μM
Col2a1 = test: Real-time quantitative PCR of Col2a1 transcripts in primary limb mesenchymal cells; assay type: cell-based, mouse; settings: 10 μM

O=S(=O)(NCCNC/C=C/c1ccc(Br)cc1)c1cccc2cnccc12 [H89]
decrease in Sox9 expression relative to rRNA (Sox9): more than 2 fold | decrease in Col2a1 expression relative to rRNA (Col2a1): more than 2 fold

From patent US20050009868A1, “Retinoid receptor pan-antagonists for stimulating chondrogenesis” (priority 2001, published 2005)
